Data as given in PubChem BioAssay AID1259425 (University of Nebraska Medical Center, 2018)
Here is a random part of about 14,000 reagents tested. Not all columns of the deposit are shown. Not stated in the record: the time to read-out.

Test: 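Seek colon cancer weak points whose silencing resembles KSR1 loss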 (primary screen)
System: HCT116 human colon cancer cells
Reagents: siRNA pool against human genes, 50 nM siRNA
Detection: 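mRNA of six signature genes measured together by branched-DNA assay after 50 nM siRNA pool, blank removed, divided by geometric mean of two housekeeping genes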
Direction: BNIP3L mRNA: higher = more BNIP3L transcript after knockdown; NDRG1 mRNA: higher = more NDRG1 transcript after knockdown

target gene | BNIP3L mRNA, set 1 | NDRG1 mRNA, set 1
MTHFD2L (GeneID 441024) | 0.15 | 0.126
YIPF5 (GeneID 81555) | 0.219 | 0.229
SNED1 (GeneID 25992) | 0.127 | 0.109
ABCF2 (GeneID 10061) | 0.0941 | 0.134
SCN7A (GeneID 6332) | 0.0855 | 0.36
SLCO1B3 (GeneID 28234) | 0.102 | 0.123
KLHL18 (GeneID 23276) | 0.123 | 0.204
CLDN9 (GeneID 9080) | 0.0721 | 0.181
LARP1 (GeneID 23367) | 0.278 | 0.53
USP9Y (GeneID 8287) | 0.115 | 0.115
SEC31B (GeneID 25956) | 0.0606 | 0.094
PIP (GeneID 5304) | 0.115 | 0.228
NFKBIZ (GeneID 64332) | 0.182 | 0.156
P2RX3 (GeneID 5024) | 0.0823 | 0.222
USP9X (GeneID 8239) | 0.0588 | 0.0803
ITGB3 (GeneID 3690) | 0.0944 | 0.104
RPS25 (GeneID 6230) | 0.201 | 0.378
CABIN1 (GeneID 23523) | 0.161 | 1.18
TNR (GeneID 7143) | 0.0632 | 0.106
SNRNP25 (GeneID 79622) | 0.0771 | 0.21
HNRNPA2B1 (GeneID 3181) | 0.0197 | 0.0869
AMELX (GeneID 265) | 0.132 | 0.0922
KCNN3 (GeneID 3782) | 0.131 | 0.221
CAMK2B (GeneID 816) | 0.0923 | 0.153
HRH4 (GeneID 59340) | 0.186 | 0.265
ITGB7 (GeneID 3695) | 0.164 | 0.293
CKB (GeneID 1152) | 0.103 | 0.0998
PCSK1N (GeneID 27344) | 0.163 | 0.347
RBBP4 (GeneID 5928) | 0.0645 | 0.137
KIN (GeneID 22944) | 0.135 | 0.0906
P2RX2 (GeneID 22953) | 0.0976 | 0.157
DDB2 (GeneID 1643) | 0.102 | 0.074
KARS1 (GeneID 3735) | 0.0849 | 0.177
PRKD1 (GeneID 5587) | 0.231 | 0.193
